Test results as given in PubChem BioAssay AID504648 (National Center for Advancing Translational Sciences (NCATS), 2011).
About 610 (0.16%) of roughly 390,000 compounds were called active. The inconclusive results got no clear call from the source; some entries with a clear call stand among them for comparison. Calls come from the whole dose curve; as a rule, active = well fitted inhibition curve with a large enough effect; inconclusive = small, poorly fitted or top-dose-only effect, or effect the other way, or another doubt; inactive = no such curve, though single readings can be large or run the other way. Where the call is inconclusive, the potency comes from a doubtful curve fit.

Assay: Nrf2 qHTS screen for inhibitors: counterscreen for cytotoxicity
Conditions: A549 ARE-Fluc cells, CellTiter-Fluor viability, 18-24 h; series mostly up to 46 µM
How it was run: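 A549 ARE_Fluc cells in 5% FBS OPTI-MEM were exposed to compounds in concentration-response for 18-24 h at 37 deg C. Viability was read by CellTiter-Fluor fluorescence (Ex 405/Em 525) after 30 min, before the luciferase read.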
Potency is the fitted concentration of half-maximal effect.

| SMILES | Potency |
| --- | --- |
| Cc1cc(OC(=O)c2ccco2)c(Sc2ccccc2[N+](=O)[O-])c(=O)o1 | inactive |
| S=C1NCCOCCNC(=S)NCCOCCOCCOCCN1 | inconclusive: 8.2 µM [activator, partial curve, poor fit] |
| O=C(NCc1cccs1)c1nc2c(nnn2Cc2ccccc2Cl)c(=O)[nH]1 | inconclusive: 5.17 µM [falling, full curve] |
| C=CCNc1nc(C(=O)OCC(=O)c2ccccc2)cs1 | inactive |
| CN1CCN(c2nc3ccccn3c(=O)c2C=C(C#N)C#N)CC1 | inconclusive: 11.6 µM [falling, partial curve, poor fit] |
| COc1cc(/C(C)=N/NC(=O)c2nnn(-c3nonc3N)c2-c2cccs2)ccc1O | inconclusive: 9.2 µM [activator, partial curve] |
| COc1ccc(CCN2C(=O)c3oc4ccc(F)cc4c(=O)c3C2c2ccc(C(C)(C)C)cc2)cc1 (stereo not drawn) | inconclusive: 20.6 µM [falling, partial curve, poor fit] |
| COc1ccc(-n2ncc(N(C)n3cccc3)c(Cl)c2=O)cc1 | inconclusive: 23.1 µM [activator, partial curve, poor fit] |
| CCCS(=O)(=O)c1ncc(Cl)c(C(=O)Nc2scc(-c3ccccc3)c2C(=O)OCC)n1 | inconclusive: 20.6 µM [falling, single point] |
| COc1cccc(CN(Cc2ccccc2F)S(=O)(=O)c2ccc(S(=O)(=O)NCc3ccccc3)cc2)c1 | inactive |
| COc1ccc(C(C(=O)OC(C)CN(C)C)c2ccccc2)cc1 (stereo not drawn) | inconclusive: 20.6 µM [activator, partial curve, poor fit] |
| CC(NC(=O)c1ccccc1)C(=O)NNC(=O)c1ccccc1Cl (stereo not drawn) | inactive |
| CCc1ccc(/C=C/C(=O)c2cc(Br)ccc(=O)c2O)cc1 | inconclusive: 11.6 µM [falling, partial curve] |
| CC(=O)Nc1ccc(NC(=O)c2sc(-c3ccccc3)nc2C)cc1 | inconclusive: 20.6 µM [activator, partial curve, poor fit] |
| O=C(NCc1ccccc1)C1c2ccccc2Oc2ccccc21 | inconclusive: 2.59 µM [activator, full curve] |
| O=C(CN1C(=O)NC(Cc2ccccc2)C1=O)Nc1ccccc1 (stereo not drawn) | inconclusive: 20.6 µM [activator, partial curve, poor fit] |
| CCN1C(=O)C(CC(=O)Nc2ccc(OC)cc2)N(CCCN2CCN(c3ccc(OC)cc3)CC2)C1=S (stereo not drawn) | inconclusive: 16.4 µM [falling, partial curve, poor fit] |
| COc1ccc(CNC(=O)C2CCN(C(=O)c3csc(Nc4ccc(C)cc4)n3)CC2)cc1 | inconclusive: 18.4 µM [falling, partial curve, poor fit] |
| COc1ccc(NS(=O)(=O)c2cn(C)cn2)c(OC)c1 | inactive |
| N=c1sccn1CC(=O)Nc1ccc(Cl)c(S(=O)(=O)N2CCOCC2)c1 | inconclusive: 23.1 µM [falling, partial curve, poor fit] |
| COc1cccc(NC(=O)CN(C)C(=O)CCNS(=O)(=O)c2ccc(C)cc2)c1 | inactive |
| CCc1nc(NCCO)c(C#N)c2c1CSC(C)(C)C2 | inactive |

| SMILES | Potency |
| --- | --- |
| O=C(Nc1ccccc1Cl)/C(Cl)=C(\Cl)S(=O)c1ccccc1 (stereo not drawn) | inconclusive: 23.1 µM [falling, single point] |
| N#C/C(=C(/O)CCCl)c1ccccn1 | inconclusive: 16.4 µM [activator, single point] |
| COc1cccc(COC(=O)C2CCN(C(=O)c3ccccc3C)CC2)c1OC | inconclusive: 16.4 µM [activator, partial curve, poor fit] |
| CN(Cc1ccccc1)c1ccc(C(CC(N)=O)NC(=O)c2ccc(Br)cc2)cc1[N+](=O)[O-] (stereo not drawn) | inconclusive: 29.1 µM [falling, single point] |
| COc1ccc(NC(=O)C2CC(=O)N/C(=N/N=C/c3ccco3)S2)cc1 (stereo not drawn) | inactive |
| N#Cc1c(/N=C/c2ccc(-c3ccccc3C(=O)O)o2)sc2c1CCCC2 | inactive |
| O=[N+]([O-])c1cccnc1N1CCC(c2cc(-c3ccc(Cl)cc3)n[nH]2)CC1 | inconclusive: 16.4 µM [falling, partial curve, poor fit] |
| COc1ccc2[nH]c3c(C)c4ccncc4c(C)c3c2c1 | inconclusive: 18.4 µM [falling, partial curve] |
| COc1ccc(N2CCN(CCCNC(=O)c3cc(Nc4ccc(OC)cc4OC)nc4ccccc34)CC2)cc1 | inconclusive: 20.6 µM [falling, partial curve, poor fit] |
| Cn1c(=O)oc2cc(S(=O)(=O)N3CCCC(C(=O)NC4CCCc5ccccc54)C3)ccc21 (stereo not drawn) | inactive |
| Cc1ccc(-n2ncc3ccccc3c2=O)cc1Cl | inactive |
| O=C(NC1CC2CCC(C1)N2Cc1nnnn1Cc1ccco1)NC12CC3CC(CC(C3)C1)C2 (stereo not drawn) | inactive |
| CCCc1nc2oc3c(NCC(C)O)ncnc3c2c2c1CCCC2 (stereo not drawn) | inconclusive: 1.64 µM [activator, full curve, poor fit] |
| Cc1cccc(C)c1OCCCn1c(CCNC(=O)C2CCCCC2)nc2ccccc21 | inconclusive: 32.6 µM [falling, partial curve, poor fit] |
| NC1=C(Cl)C(=O)c2ccc(S(N)(=O)=O)cc2C1=O | active: 5.8 µM |
| O=C1/C(=C/c2ccc(O)c([N+](=O)[O-])c2)SC(=S)N1Cc1ccccc1 | inactive |
| O=C(O)CCCn1cc(NC(=O)COc2cccc(Cl)c2)cn1 | inconclusive: 0.092 µM [activator, full curve, poor fit] |
| O=C(CCl)Nc1ccc(S(=O)(=O)NC2=NCCCCC2)cc1 | inconclusive: 18.4 µM [falling, single point] |
| CSCCC(NS(=O)(=O)c1ccccc1F)C(=O)NCc1ccncc1 (stereo not drawn) | inactive |
| O=C(CCN1C(=O)/C(=C/c2ccccc2)SC1=S)NC1CCS(=O)(=O)C1 (stereo not drawn) | inconclusive: 29.1 µM [falling, single point] |
| NC1=NC[C@@H](CC2CCCCC2)N1CCc1cc(C(F)(F)F)cc(C(F)(F)F)c1 | inactive |

An excerpt from above in order of SMILES length, smallest number first:

| SMILES | Potency |
| --- | --- |
| N#C/C(=C(/O)CCCl)c1ccccn1 | inconclusive: 16.4 µM [activator, single point] |
| COc1ccc2[nH]c3c(C)c4ccncc4c(C)c3c2c1 | inconclusive: 18.4 µM [falling, partial curve] |
| O=C(CCl)Nc1ccc(S(=O)(=O)NC2=NCCCCC2)cc1 | inconclusive: 18.4 µM [falling, single point] |
